Values from PubChem BioAssay AID652259 (Drosophila RNAi Screening Center, 2013)
In all, the deposit lists about 22,000 reagents; shown is a random part of those with a known target gene and a result. Of all reagents, 233 (1.1%) were called active. 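Light values are raw, unnormalised plate reads; the ratio scores behind the reporter calls were not deposited.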 Names joined by + are all predicted targets of the reagent. Not given: the amount of reagent, the time to read-out, the dose of the treatment.

- Aim: 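Knock-downs that push a Wingless-driven reporter up or down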 (primary screen)
- Cells: Drosophila clone 8 imaginal disc epithelial cells
- Reagent: long dsRNA against Drosophila genes
- Conditions: pathway stimulated by co-transfected Wingless expression plasmid
- Detection: 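Dual luciferase reads per well after Wingless plasmid stimulation: reporter firefly light and Renilla control light; activity is firefly divided by Renilla, a ratio not deposited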
- Scale: firefly reporter light: higher = more Wg reporter light, before normalisation; Renilla control light: higher = more transfected or surviving cells
- Active means: 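Strong candidates differ from their plate mean by at least two out of four per-plate statistical tests; weak candidates meet just one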
- Calls: active = candidate regulator (raises or lowers reporter); inactive = not a candidate

| gene | DRSC id | reporter change call, replicate 1 | firefly reporter light, replicate 1 | firefly reporter light, replicate 2 | Renilla control light, replicate 1 | Renilla control light, replicate 2 | Call |
| --- | --- | --- | --- | --- | --- | --- | --- |
| ClC-c | DRSC10499 | – | 3848 | – | 1526 | – | inactive |
| yellow-e | DRSC12966 | – | 5032 | – | 1985 | – | inactive |
| yellow-e | DRSC16563 | – | 13779 | – | 2464 | – | inactive |
| CG34292 | DRSC13807 | – | 2947 | – | 1488 | – | inactive |
| bbx + waw | DRSC20575 | – | 3445 | 6829 | 1273 | 2537 | inactive |
| bbx + waw | DRSC20589 | – | 9026 | – | 6332 | – | inactive |
| Art3 | DRSC16065 | – | 7542 | – | 2683 | – | inactive |
| CG6171 | DRSC15982 | – | 5657 | – | 2408 | – | inactive |
| tok | DRSC17087 | – | 2372 | 4640 | 1152 | 1893 | inactive |
| CG31493 | DRSC12583 | – | 7097 | – | 3047 | – | inactive |
| CG13056 | DRSC09937 | – | 11244 | – | 4088 | – | inactive |
| Gr22d | DRSC21653 | – | 7.32e5 | 6.57e5 | 3.75e5 | 3.14e5 | inactive |
| Gr61a | DRSC08358 | – | 8251 | – | 2584 | – | inactive |
| CG3071 | DRSC18526 | – | 3731 | 8507 | 1556 | 3763 | inactive |
| CG17059 | DRSC06654 | – | 7187 | – | 3108 | – | inactive |
| Nse4 | DRSC02239 | – | 3338 | 7460 | 986 | 3649 | inactive |
| stwl | DRSC11400 | – | 1724 | – | 761 | – | inactive |
| CG11438 | DRSC11660 | – | 19856 | – | 5712 | – | inactive |
| CG14354 | DRSC14817 | – | 19200 | – | 14480 | – | inactive |
| CG32277 | DRSC08196 | – | 5363 | – | 2188 | – | inactive |
| lncRNA:roX1 | DRSC21884 | – | 4.55e5 | 4.85e5 | 1.96e5 | 2.37e5 | inactive |
| CG14811 | DRSC17962 | – | 22841 | – | 16688 | – | inactive |
| CG13599 | DRSC14602 | – | 21904 | – | 15467 | – | inactive |
| na | DRSC19639 | – | 19552 | – | 12724 | – | inactive |
| CG15073 | DRSC06506 | – | 11675 | – | 4085 | – | inactive |
| Sdr | DRSC15517 | – | 6141 | – | 2379 | – | inactive |
| dan | DRSC14406 | – | 1849 | 6905 | 704 | 1840 | inactive |
| CG3502 | DRSC04381 | – | 10425 | – | 2248 | – | inactive |
| Agpat4 | DRSC10446 | – | 5754 | – | 2869 | – | inactive |
| CG8195 | DRSC07103 | – | 13357 | – | 4054 | – | inactive |
| IM33 | DRSC00476 | – | 3927 | 8416 | 977 | 2707 | inactive |
| CG2186 | DRSC19838 | – | 3453 | 9787 | 921 | 2448 | inactive |
| MED18 | DRSC18549 | – | 20188 | – | 11814 | – | inactive |
| CG31668 | DRSC22584 | – | 6.38e5 | 6.84e5 | 2.59e5 | 1.62e5 | inactive |
| Jhbp6 | DRSC11714 | – | 11300 | – | 4300 | – | inactive |
| eEF1delta | DRSC02790 | – | 11814 | – | 2026 | – | inactive |
| CG4282 | DRSC06865 | – | 11099 | – | 4164 | – | inactive |
| twz | DRSC04069 | – | 1664 | 6048 | 705 | 2729 | inactive |
| CG1943 | DRSC12576 | – | 14144 | – | 2352 | – | inactive |
| Hsdl2 | DRSC15839 | – | 2124 | 5424 | 1149 | 1834 | inactive |
| CG12268 | DRSC14491 | – | 16152 | – | 14854 | – | inactive |
| Epac | DRSC04969 | – | 3915 | – | 1024 | – | inactive |
| Epac | DRSC04996 | – | 13532 | – | 2949 | – | inactive |
| Epac | DRSC04997 | – | 1816 | 8928 | 421 | 2336 | inactive |
| CG14499 | DRSC06470 | – | 6048 | – | 2387 | – | inactive |
| Irk2 | DRSC15569 | – | 3126 | 4789 | 1429 | 1796 | inactive |
| CG14104 | DRSC10106 | Wg reporter activity lowered | 15344 | – | 5536 | – | inactive |
| Cyp6d2 | DRSC04606 | – | 2820 | 9664 | 813 | 4049 | inactive |
| CG5906 | DRSC10557 | – | 5339 | – | 2172 | – | inactive |
